Data: the supplement of paper PMC3334620
Over roughly 33,000 sequences, “E-score (-0.5 to 0.5)” has its median near -0.0014; the highest 2% begin near 0.25. The list shows a part of the results.

Biological target: T1, Cad1 (UniProt P24813)
T1 sequence: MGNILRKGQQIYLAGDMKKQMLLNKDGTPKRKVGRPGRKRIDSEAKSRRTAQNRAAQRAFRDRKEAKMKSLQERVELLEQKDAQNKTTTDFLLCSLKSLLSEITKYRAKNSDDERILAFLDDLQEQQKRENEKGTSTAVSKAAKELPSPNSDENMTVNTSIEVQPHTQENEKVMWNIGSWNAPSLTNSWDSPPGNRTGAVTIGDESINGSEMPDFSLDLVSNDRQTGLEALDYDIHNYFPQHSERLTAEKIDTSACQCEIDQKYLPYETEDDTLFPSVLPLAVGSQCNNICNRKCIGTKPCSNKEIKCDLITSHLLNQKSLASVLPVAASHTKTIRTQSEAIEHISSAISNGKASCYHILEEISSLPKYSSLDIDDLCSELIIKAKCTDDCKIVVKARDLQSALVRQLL
Assay: PBM E-score (8-mer binding enrichment) (E-score (-0.5 to 0.5)); higher = stronger / more preferred TF binding
Conditions: protein concentration: 100 nM; construct: GST-full length
Experimental: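 Universal 'all 10-mer' protein binding microarrays (Agilent AMADID 015681) probed with GST-tagged S. cerevisiae TFs (full-length or DBD) made by in vitro transcription/translation (PURExpress), about 100-200 nM. Bound TF was detected with fluorescent anti-GST. Each ungapped 8-mer (which stands for itself and its reverse complement) is scored by the PBM enrichment score (E-score), a modified Wilcoxon-Mann-Whitney statistic from -0.5 to +0.5, computed with the Universal PBM Analysis Suite. Scale: above 0.35 generally sequence-specific binding.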

Sequence	PBM E-score
GACAGACA	0.21
AACATGTC	0.00441
ACCGCAAA	0.14
ATTCGGGA	-0.0803
CCATCGTA	0.128
AATTCTTA	0.128
CCCGGGAA	-0.0141
CTGGAGGC	-0.0647
CTTTGCCA	-0.161
AGTTTATC	0.0956
ATTGCGGC	-0.0914
ATTATCTG	0.154
CGAGAATA	0.128
ACACACAC	-0.0366
GGATTACA	0.0354
AGTGATAT	0.0284
CATCGGCA	0.0127
CATCTTGG	-0.192
CGAAGTAC	0.0229
GAAGGGGC	-0.26
TGAGAACA	0.24
AAACGCGA	0.0547
GTCGCGTA	0.127
ATCGCCAT	-0.0275
ATCCGCTC	-0.0674

Sequence	PBM E-score
ATTAAAAG	0.0637
ATAAAGAC	-0.0456
ACTTATAG	0.0372
AAGCGAGT	0.22
ATGGACAG	-0.148
ATATCTCC	0.0873
GTGAAGAA	0.0872
GGAAATCA	0.0778
CCCCAAAG	-0.144
GTCGAGAA	0.137
AGGTGCAA	-0.0504
AAGGCCAG	-0.17
AGCGTACT	-0.12
CTACCAAG	-0.0872
ATATGTTG	0.094
CAACGAAG	0.0215
AGACCAAT	0.155
AGGGCGGG	0.0757
TACTTGAA	0.0482
GCAGTACA	-0.0947
CCGGGAGG	-0.259
CAGAAGGC	0.0218
CGAAATGA	0.00552
CTGTTGGA	-0.0293
AGACAGAA	-0.0471

Seven records drawn at random from the list so far, as already listed:
Sequence	PBM E-score
ATATCTCC	0.0873
ACTTATAG	0.0372
GGAAATCA	0.0778
AGGGCGGG	0.0757
CAGAAGGC	0.0218
CCCCAAAG	-0.144
AGACCAAT	0.155

(cont.)

Sequence	PBM E-score
ATTGAGTA	0.142
ATTTCATG	-0.116
GATATGGC	-0.315
GGAGACTA	-0.23
AGGATGAC	0.0466
ATGGTCGA	0.0565
ACACGTGT	-0.0435
ACAGATGG	-0.127
CGGTATTA	0.101
GGAAGAGA	-0.0843
CCGCCAGC	-0.151
GAACGTCA	-0.0774
ATCATCGG	0.123
ACCCCCAC	-0.44
TAAGGGGA	-0.149
ATAACAAT	0.0624
ATTGACGC	0.0385
ACTTCGAA	0.084
AGAGTCAT	-0.221
AGCGTCAA	-0.0579
GCGCGTTA	0.147
CGTGGTCA	-0.092
AATATTAC	0.347
ACTCTGGC	-0.111
ATAAAATG	0.192

Sequence	PBM E-score
CAGTATCC	-0.0463
GAACCGAC	0.105
CGGATAAC	0.0736
GGGCGCAC	-0.163
CTCCCTAC	-0.26
ATATCGCA	-0.0511
AAGGACCA	-0.17
AGCGGGAT	-0.0726
CGCTTCCG	0.129
AACTAGGC	-0.133
AGCAAGAA	0.0592
AGTTCCCG	-0.0922
CAGCGATG	-0.0149
GAGTTGAC	-0.0116
GAGCCAAC	-0.164
ACCGGACT	-0.13
CAGTCCTA	-0.0337
GAAACCCC	-0.162
AGGGCTGC	-0.242
CATCAGAA	0.126
GGACACGA	-0.0804
GGGTTTGA	-0.00297
GTGTGTCA	0.217
ATTTCGGA	0.211
CGATCAAC	-0.0208

Quoted from the listing for reference:
Sequence	PBM E-score
AACATGTC	0.00441
ACCGCAAA	0.14
ATTCGGGA	-0.0803
CCATCGTA	0.128
AATTCTTA	0.128

Additional records

Sequence	PBM E-score
GCTATATA	0.149
CCCCGCTC	-0.358
ACGGTCCA	-0.0906
ATGAGATG	0.103
TACACTAA	0.147
ACATCACG	-0.073
ACCGCCCC	-0.00693
TAGCTGAA	0.0392
AGCTTAAG	0.156
ATGGCCTG	0.0685
AAAGAGCC	-0.142
CTTTGCTC	0.0584
GTCTGCAC	-0.196
GGTTAGAC	0.166
AACCTCGG	0.0695
CTGCTCGC	0.155
CTGGATAC	0.00912
CTCGCCTC	-0.185
CGCGCGGA	0.212
CTTAGAAA	0.209
CAGAGACC	-0.145
AATAGAAG	-0.0658
TAGCAGGA	-0.153
AAGTTCTG	0.0248
ATTCTGCC	0.0412

Sequence	PBM E-score
GGGCGAAA	0.0308
GTTTATCA	0.173
ACGCGTTA	0.167
ACGAGTTG	-0.0466
GGAATGCA	-0.0716
ATCACCGC	-0.0648
ACCGAGCA	0.00804
ACTCGCCA	0.0103
AGAGACTG	-0.269
AGTTAGAT	0.00473
AGGGGGAT	-0.359
GAATTTTA	0.16
ATGTGAGG	0.0824
ACTTGCCA	-0.0915
CTCATAGC	-0.238
ACTAGAAC	0.0619
GGTACATA	-0.0858
GATCGATA	0.132
ATTTATTC	0.159
ATTGGGTA	0.05
AATCGCAC	-0.0708
AACACGAT	0.123
CCACAGAA	-0.1
GAAAACGC	0.0255
GGCCCTTA	-0.189

Sequence	PBM E-score
ACGTAATA	0.311
CTACCCAG	-0.129
TAGCCTGA	-0.161
CCGCATCC	-0.143
ACAAAAGG	-0.0897
CTGAAGCA	-0.0415
AGGGTTCC	-0.0525
ACAATAAC	0.196
CCGGCGAC	-0.0761
GCAACTCA	0.182
CGGTTACG	-0.0162
CTCTTCGC	-0.0391
CAGGGGAG	-0.277
ATTATAGA	-0.0402
CACTTAGG	-0.03
ATCGCTTG	0.00119
AAGTACGT	0.0732
CGGGATCA	-0.14
AGGCAATC	-0.0875
CCACTGGG	-0.194
CCTTTGTA	-0.00184
ACTTTTCA	0.0145
